In article PMC11847685 one finds binding data, which are given here for 4 substances.

The chains behind the UniProt entries cited, without tags or fusion partners. Where a name states a change or a piece, a line headed by the entry shows the natural chain unless it says otherwise. Residues count along the entry.
UniProt P06401: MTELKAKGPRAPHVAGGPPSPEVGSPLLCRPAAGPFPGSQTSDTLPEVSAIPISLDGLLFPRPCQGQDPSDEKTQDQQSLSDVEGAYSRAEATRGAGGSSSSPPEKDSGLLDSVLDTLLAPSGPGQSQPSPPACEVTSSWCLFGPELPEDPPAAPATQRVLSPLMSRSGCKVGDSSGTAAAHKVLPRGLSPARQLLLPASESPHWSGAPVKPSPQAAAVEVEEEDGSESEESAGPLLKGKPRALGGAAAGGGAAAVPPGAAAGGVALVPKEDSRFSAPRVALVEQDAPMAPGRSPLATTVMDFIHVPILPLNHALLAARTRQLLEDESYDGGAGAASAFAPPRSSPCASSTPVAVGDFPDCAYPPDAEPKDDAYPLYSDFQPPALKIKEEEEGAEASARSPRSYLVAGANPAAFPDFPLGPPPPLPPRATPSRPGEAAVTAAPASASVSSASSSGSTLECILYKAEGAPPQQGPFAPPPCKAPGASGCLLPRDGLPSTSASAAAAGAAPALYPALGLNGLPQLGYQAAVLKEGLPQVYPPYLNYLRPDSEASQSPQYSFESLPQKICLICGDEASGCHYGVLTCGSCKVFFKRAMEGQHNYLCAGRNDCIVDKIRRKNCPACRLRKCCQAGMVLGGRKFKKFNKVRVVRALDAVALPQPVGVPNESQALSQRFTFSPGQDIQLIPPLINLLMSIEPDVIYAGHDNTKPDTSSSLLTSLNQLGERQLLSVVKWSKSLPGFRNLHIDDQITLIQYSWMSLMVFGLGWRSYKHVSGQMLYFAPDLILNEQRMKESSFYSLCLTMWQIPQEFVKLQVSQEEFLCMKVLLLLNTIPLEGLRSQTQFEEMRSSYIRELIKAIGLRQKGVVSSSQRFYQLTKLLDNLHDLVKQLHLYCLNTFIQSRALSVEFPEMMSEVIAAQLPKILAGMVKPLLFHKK
phosphorylated progesterone receptor isoform A (p-PRA): residues 165-933 of P06401
UniProt P41240: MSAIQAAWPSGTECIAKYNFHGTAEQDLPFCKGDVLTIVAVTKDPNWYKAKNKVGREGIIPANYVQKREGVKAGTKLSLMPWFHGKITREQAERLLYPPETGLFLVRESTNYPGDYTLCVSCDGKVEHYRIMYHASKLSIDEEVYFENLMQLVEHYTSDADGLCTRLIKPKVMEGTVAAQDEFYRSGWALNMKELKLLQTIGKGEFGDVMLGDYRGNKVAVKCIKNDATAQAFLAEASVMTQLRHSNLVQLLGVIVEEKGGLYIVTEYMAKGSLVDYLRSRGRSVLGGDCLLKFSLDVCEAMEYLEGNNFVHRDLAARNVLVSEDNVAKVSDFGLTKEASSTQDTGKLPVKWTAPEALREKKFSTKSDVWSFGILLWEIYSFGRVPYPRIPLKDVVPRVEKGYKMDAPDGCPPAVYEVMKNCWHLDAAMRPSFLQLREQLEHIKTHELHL
UniProt Q03135: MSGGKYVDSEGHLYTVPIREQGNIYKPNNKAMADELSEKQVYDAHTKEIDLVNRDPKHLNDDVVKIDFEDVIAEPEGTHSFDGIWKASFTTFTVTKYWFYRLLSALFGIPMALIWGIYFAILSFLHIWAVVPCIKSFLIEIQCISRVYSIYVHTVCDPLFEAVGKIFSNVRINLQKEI

For experiment [1], the target named is progesterone receptor (PR) (human (endogenous in T47D, MCF-7 and BT-483)) (UniProt P06401). Put plainly: co-IP; endogenous proteins of T47D, MCF-7 and BT-483 cell extracts (200 ug protein), primary antibody (2 ug) and protein A agarose beads, washed 5 times with lysis buffer and once with PBS, Western blot; cells with or without P4 (50 nM), with NT siRNA or SHP2 siRNA.

In experiment [2] the target is Csk (human (endogenous in T47D, MCF-7 and BT-483)) (UniProt P41240). Described as above.

No constants are given. Whether binding was seen depends on the method and setting. In cells and extracts the contact can be indirect. Some results given as binding are weak or reduced against the parent protein; the word gives no strength.

“Csk (from UniProt P41240 1-450) (enzyme)”: the binding result in experiment [1] is recorded as “binds”.

As to “progesterone receptor isoform A (PRA) (from UniProt P06401-2 1-769)”, the binding entry in experiment [2] is “binds”.

For “phosphorylated progesterone receptor isoform A (p-PRA) (from UniProt P06401-2 1-769)”, in experiment [2], the binding entry is on record as “binds”.

As for caveolin-1 (from UniProt Q03135 1-178), the binding entry in experiment [1] was “binds”.
